# Counter-ions that a name gives are not always drawn. This is one part of the list. Single values are uncertain, as repeats are few or missing.
# How the values were obtained:
# Assay in all cases: reduction in cell viability relative to untreated/vehicle; higher = more growth inhibition
# Details in all cases: 200 nM; 72 h
# M229P = test system: M229P (parental melanoma line)
# M229R = test system: M229R (matched melanoma line resistant to BRAF inhibitors)
# M238P = test system: M238P (parental melanoma line)
# M238R = test system: M238R (matched melanoma line resistant to BRAF inhibitors)
# M249P = test system: M249P (parental melanoma line)
# M249R = test system: M249R (matched melanoma line resistant to BRAF inhibitors)
# UACC62P = test system: UACC62P (parental melanoma line)
# UACC62R = test system: UACC62R (matched melanoma line resistant to BRAF inhibitors)
SMILES,reduction in cell viability (M229P),reduction in cell viability (M229R),reduction in cell viability (M238P),reduction in cell viability (M238R),reduction in cell viability (M249P),reduction in cell viability (M249R),reduction in cell viability (UACC62P),reduction in cell viability (UACC62R)
O=c1[nH]c2ccccc2n1CCCN1CCC(n2c(=O)[nH]c3cc(Cl)ccc32)CC1 [Domperidone],< 0%,< 0%,< 0%,< 0%,< 0%,< 0%,3.6%,< 0%
CN1[C@@H]2C[C@@H](OC(=O)[C@H](CO)c3ccccc3)C[C@H]1[C@@H]1O[C@@H]12 [Scopolamine],< 0%,< 0%,< 0%,< 0%,< 0%,< 0%,< 0%,< 0%
C[C@H]1[C@@H](C(=O)C[C@H]2O[C@@H]3O[C@]4(C)CC[C@H]5[C@H](C)CC[C@@H]([C@H]2C)[C@@]35OO4)O[C@@H]2O[C@]3(C)CC[C@H]4[C@H](C)CC[C@@H]1[C@@]24OO3 [BTM-2C-dimer ketone],9.52%,1.52%,19.7%,18.4%,31.9%,29.3%,13.5%,55.3%
CC(C)NC1CCn2c(=O)[nH]c3cccc(c32)C1O (stereo not drawn) [Zilpaterol],< 0%,< 0%,< 0%,< 0%,< 0%,< 0%,< 0%,< 0%
C[C@]12O[C@H](C[C@]1(O)CO)n1c3ccccc3c3c4c(c5c6ccccc6n2c5c31)CNC4=O [Lestaurtinib???],< 0%,42.8%,32.2%,13.2%,15.6%,37.8%,36.7%,10.8%
COC[C@@H](NC(C)=O)C(=O)NCc1ccccc1 [Lacosamide],< 0%,< 0%,< 0%,< 0%,< 0%,< 0%,< 0%,< 0%
N[C@@H]1C[C@H]1c1ccccc1.N[C@H]1C[C@@H]1c1ccccc1 [Tranylcypromine],< 0%,< 0%,< 0%,< 0%,< 0%,< 0%,< 0%,< 0%
CN1CCN(c2ccc([N+](=O)[O-])c3no[n+]([O-])c23)CC1,< 0%,< 0%,< 0%,< 0%,< 0%,< 0%,< 0%,< 0%
CN(C)CCN(C)CCc1ccc(Cl)c(Cl)c1,< 0%,< 0%,< 0%,< 0%,< 0%,< 0%,< 0%,< 0%
CC(=O)OCC1=C(C(=O)O)N2C(=O)[C@@H](N)[C@H]2SC1 [7-Aminocephalosporanic acid],< 0%,< 0%,< 0%,< 0%,< 0%,< 0%,< 0%,< 0%
c1ccc(CCCN2CCN(CCOC(c3ccccc3)c3ccccc3)CC2)cc1,< 0%,< 0%,< 0%,< 0%,< 0%,< 0%,8.75%,< 0%
C#CCN(C)[C@H](C)Cc1ccccc1 [Selegiline hydrochloride],< 0%,< 0%,< 0%,4.66%,< 0%,< 0%,10.6%,< 0%
C=CCO/N=C(/C[C@H]1O[C@@H]2O[C@]3(C)CC[C@H]4[C@H](C)CC[C@@H]([C@H]1C)[C@@]24OO3)[C@H]1O[C@@H]2O[C@]3(C)CC[C@H]4[C@H](C)CC[C@@H]([C@H]1C)[C@@]24OO3 [BTM-2C-dimer allyl oxime],20.8%,7.68%,28.2%,25%,55.9%,47.7%,46.6%,58.7%
CN(C)NC(=O)CCC(=O)O [Daminozide],< 0%,< 0%,< 0%,< 0%,< 0%,< 0%,0.28%,< 0%
C/C(=C\c1csc(C)n1)[C@@H]1C[C@@H]2O[C@]2(C)CCC[C@H](C)[C@H](O)[C@@H](C)C(=O)C(C)(C)[C@@H](O)CC(=O)O1 [Epothilone B],27.2%,44.3%,80.1%,75.6%,57%,49.8%,47.2%,87.7%
CCCCCC[C@H]1C(=O)O[C@H](C)[C@H](NC(=O)c2cccc(NC=O)c2O)C(=O)O[C@@H](C)[C@@H]1OC(=O)CC(C)C [Antimycin A],< 0%,13.4%,6.28%,< 0%,0.64%,< 0%,< 0%,37.6%
COc1cc([C@@H]2c3cc4c(cc3[C@H](O)[C@H]3COC(=O)[C@H]23)OCO4)cc(OC)c1OC [Podofilox],31.9%,45%,48.3%,56.9%,43.2%,43.9%,56.8%,85.3%
c1cc2c(cc1[C@H]1OC[C@H]3[C@@H]1CO[C@@H]3c1ccc3c(c1)OCO3)OCO2 [Sesamin],< 0%,< 0%,< 0%,< 0%,< 0%,< 0%,5.19%,< 0%
CC(=O)N(C)c1cccc(-c2ccnc3c(C(=O)c4cccs4)cnn23)c1 [Indiplon],< 0%,< 0%,< 0%,< 0%,< 0%,< 0%,< 0%,< 0%
Cc1nc(-c2ccc(-c3ccc(C(=O)N4CCc5cc6c(cc54)C4(CCN(C)CC4)CO6)cc3)c(C)c2)no1,< 0%,< 0%,< 0%,< 0%,< 0%,< 0%,< 0%,< 0%
CCCN1CCOC2c3cc(O)ccc3OCC21 (stereo not drawn),< 0%,0.83%,< 0%,< 0%,< 0%,< 0%,< 0%,< 0%

# Random excerpt: 2 compounds from above
SMILES,reduction in cell viability (M229P),reduction in cell viability (M229R),reduction in cell viability (M238P),reduction in cell viability (M238R),reduction in cell viability (M249P),reduction in cell viability (M249R),reduction in cell viability (UACC62P),reduction in cell viability (UACC62R)
CC(=O)OCC1=C(C(=O)O)N2C(=O)[C@@H](N)[C@H]2SC1 [7-Aminocephalosporanic acid],< 0%,< 0%,< 0%,< 0%,< 0%,< 0%,< 0%,< 0%
C#CCN(C)[C@H](C)Cc1ccccc1 [Selegiline hydrochloride],< 0%,< 0%,< 0%,4.66%,< 0%,< 0%,10.6%,< 0%

# From the supplement of paper PMC9015667
